Among the data in publication PMC12684390 are binding values, retold here.

The chains behind the UniProt entries cited, without tags or fusion partners.
UniProt Q5TF58: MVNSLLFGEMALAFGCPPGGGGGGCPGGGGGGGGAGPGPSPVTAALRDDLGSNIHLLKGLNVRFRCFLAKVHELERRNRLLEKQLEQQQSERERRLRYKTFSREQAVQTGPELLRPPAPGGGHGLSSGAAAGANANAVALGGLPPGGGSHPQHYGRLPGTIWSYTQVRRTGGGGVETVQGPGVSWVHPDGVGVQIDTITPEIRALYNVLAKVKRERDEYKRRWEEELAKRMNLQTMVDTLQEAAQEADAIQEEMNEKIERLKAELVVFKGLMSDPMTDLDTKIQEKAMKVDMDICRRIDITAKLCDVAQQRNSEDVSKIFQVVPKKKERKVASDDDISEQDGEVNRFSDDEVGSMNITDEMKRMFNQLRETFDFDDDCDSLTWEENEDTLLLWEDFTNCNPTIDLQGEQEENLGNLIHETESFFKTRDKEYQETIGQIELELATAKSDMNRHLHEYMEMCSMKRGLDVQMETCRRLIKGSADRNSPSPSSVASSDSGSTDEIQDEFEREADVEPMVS
UniProt Q13426: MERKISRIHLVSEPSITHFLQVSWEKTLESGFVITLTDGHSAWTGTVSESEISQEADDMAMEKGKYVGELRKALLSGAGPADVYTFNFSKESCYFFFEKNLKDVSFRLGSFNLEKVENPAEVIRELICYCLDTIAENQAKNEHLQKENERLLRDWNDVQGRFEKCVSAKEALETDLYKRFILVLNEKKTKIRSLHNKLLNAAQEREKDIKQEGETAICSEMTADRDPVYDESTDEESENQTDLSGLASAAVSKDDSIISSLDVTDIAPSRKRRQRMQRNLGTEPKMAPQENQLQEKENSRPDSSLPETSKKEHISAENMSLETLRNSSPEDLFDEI
UniProt Q9H9Q4: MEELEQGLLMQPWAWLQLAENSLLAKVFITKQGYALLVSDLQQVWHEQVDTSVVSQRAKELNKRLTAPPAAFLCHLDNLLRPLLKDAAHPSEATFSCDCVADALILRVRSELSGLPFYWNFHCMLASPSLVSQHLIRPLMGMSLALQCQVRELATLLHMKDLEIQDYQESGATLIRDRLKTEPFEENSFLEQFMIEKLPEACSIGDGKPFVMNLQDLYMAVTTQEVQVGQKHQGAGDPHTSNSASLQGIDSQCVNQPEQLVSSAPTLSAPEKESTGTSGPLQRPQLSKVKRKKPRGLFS
UniProt Q0D2I5: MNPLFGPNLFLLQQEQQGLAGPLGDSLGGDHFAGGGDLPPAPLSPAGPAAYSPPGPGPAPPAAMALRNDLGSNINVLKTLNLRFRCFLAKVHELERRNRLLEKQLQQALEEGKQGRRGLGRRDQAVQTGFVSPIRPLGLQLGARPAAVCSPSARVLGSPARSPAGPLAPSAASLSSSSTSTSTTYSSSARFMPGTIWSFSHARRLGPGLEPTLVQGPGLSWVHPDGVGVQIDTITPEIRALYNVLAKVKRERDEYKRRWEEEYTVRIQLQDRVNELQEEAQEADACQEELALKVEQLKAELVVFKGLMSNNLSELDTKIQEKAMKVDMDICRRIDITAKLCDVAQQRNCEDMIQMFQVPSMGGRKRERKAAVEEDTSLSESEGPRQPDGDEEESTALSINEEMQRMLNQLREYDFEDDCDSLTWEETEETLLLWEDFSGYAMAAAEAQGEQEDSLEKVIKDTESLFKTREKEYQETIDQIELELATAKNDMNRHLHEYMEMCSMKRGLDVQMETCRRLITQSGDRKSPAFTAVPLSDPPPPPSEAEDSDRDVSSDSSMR

Assay [1] has as its target FLAG-IFFO2 (full-length IFFO2) (UniProt Q5TF58). Put plainly: affinity purification with mass spectrometry + co-IP; FLAG-IFFO2 IP on anti-FLAG M2 gel, eluate read by MS (Fig. 1E) and by western blot (Fig. 1F). In general terms: Immunoblotting shows a protein as a band on a membrane.
For assay [2], the target named is FLAG-XRCC4 (human (cDNA from hORFemone v.8.1)) (UniProt Q13426). The assay can be described thus: affinity purification with mass spectrometry; FLAG-XRCC4 expressed in suspension 293 cells, IP on anti-FLAG M2 gel, elution with 3x Flag peptide, MS (Fig. 1A, B); lysis buffer 25 mM Tris-HCl pH 7.5, 150 mM NaCl, 0.5% NP-40, benzonase.

No constants are given. Whether binding was seen depends on the method and setting. In cells and extracts the contact can be indirect. Here binding means that the protein was enriched with, or labelled near, the bait; the list need not be complete. For some assays here: No binding means not detected with the bait.

Regarding “XRCC4 (endogenous) (from UniProt Q13426 1-336)”, in assay [1], the binding result is reported as “binds”.
On to “XLF (endogenous) (from UniProt Q9H9Q4 1-299)”, for which the binding entry in assay [1] is “no binding”.
With “IFFO1 (endogenous) (from UniProt Q0D2I5 1-559)”, the binding result in assay [1] and in assay [2] was “binds” throughout.
Turning to “IFFO2 (endogenous) (from UniProt Q5TF58 1-517)”, in assay [2], the binding result is recorded as “binds”.
